These are yes or no findings as the source states them, for the method shown. In cells and extracts the contact can be indirect. Here binding means that the protein was enriched with, or labelled near, the bait; the list need not be complete.
B1: Complement Component 1q Binding Protein (C1QBP), mouse (protein, UniProt O35658 71-278)
chain: LHTEGDKAFVEFLTDEIKEEKKIQKHKSLPKMSGDWELEVNGTEAKLLRKVAGEKITVTFNINNSIPPTFDGEEEPSQGQKAEEQEPERTSTPNFVVEVTKTDGKKTLVLDCHYPEDEIGHEDEAESDIFSIKEVSFQATGDSEWRDTNYTLNTDSLDWALYDHLMDFLADRGVDNTFADELVELSTALEHQEYITFLEDLKSFVKNQ
B2: USP17LA (protein, UniProt Q61068 1-526)
chain: MVVALSFPEADPALSSPDAPELHQDEAQVVEELTVNGKHSLSWESPQGPGCGLQNTGNSCYLNAALQCLTHTPPLADYMLSQEHSQTCCSPEGCKLCAMEALVTQSLLHSHSGDVMKPSHILTSAFHKHQQEDAHEFLMFTLETMHESCLQVHRQSKPTSEDSSPIHDIFGGWWRSQIKCLLCQGTSDTYDRFLDIPLDISSAQSVKQALWDTEKSEELCGDNAYYCGKCRQKMPASKTLHVHIAPKVLMVVLNRFSAFTGNKLDRKVSYPEFLDLKPYLSEPTGGPLPYALYAVLVHDGATSHSGHYFCCVKAGHGKWYKMDDTKVTRCDVTSVLNENAYVLFYVQQANLKQVSIDMPEGRINEVLDPEYQLKKSRRKKHKKKSPFTEDLGEPCENRDKRAIKETSLGKGKVLQEVNHKKAGQKHGNTKLMPQKQNHQKAGQNLRNTEVELDLPADAIVIHQPRSTANWGRDSPDKENQPLHNADRLLTSQGPVNTWQLCRQEGRRRSKKGQNKNKQGQRLLLVC

Target: ROP1-HA of the T. gondii PRU strain (PRU ROP1-HA) (Toxoplasma gondii (PRU strain))
Assay: affinity purification with mass spectrometry; anti-HA agarose matrix overnight at 4°C on lysates (50 mM Tris, 150 mM NaCl, 0.2% Triton X-100, pH 7.5) of IFNγ-stimulated primary C57BL/6J MEFs infected for 24 h with PRU ROP1-HA or parental PRUΔKU80; in-gel digest, LC-MS/MS, iBAQ

Binder	binding
B1	binds
B2	binds

From PMC9762571
